Patent US20100249372A1 (WISCONSIN ALUMNI RESEARCH FOUNDATION, published 2010)
No constants are given. Whether binding was seen depends on the method and setting. Some entries that bind do so weakly or less than the wild type. For some assays here: Tags and fused reporters may be left off the sequences shown.

Columns and labels:
[1] = biological target: GST fusion of rat SV2C amino acids 454-546 (rat) (UniProt Q9Z2I6); assay: summary of the example (GST pull-down)
[2] = biological target: GST fusion of rat SV2C amino acids 529-566 (rat); assay: summary of the example (GST pull-down)
[3] = biological target: GST fusion of rat SV2C amino acids 529-562 (rat); assay: summary of the example (GST pull-down)
[4] = biological target: mouse SV2B, endogenous (mouse) (UniProt Q8BG39); assay: immunofluorescence of BoNT/A on hippocampal neurons of SV2 knockout mouse lines
[5] = biological target: mouse SV2A, endogenous (mouse) (UniProt Q9JIS5); assay: as above
[6] = biological target: GST fusion of rat SV2C amino acids 454-546 (rat) (UniProt Q9Z2I6); assay: description's account of the truncation experiments
[7] = biological target: GST fusion of rat SV2C amino acids 529-566 (rat); assay: as above
[8] = biological target: GST fusion of rat SV2C amino acids 529-562 (rat); assay: as above
[9] = biological target: rat SV2B, full length (rat) (UniProt Q63564); assay: summary of the example
[10] = biological target: T1, rat SV2C, full length (rat) (UniProt Q9Z2I6); assay: summary of the example
T1 sequence: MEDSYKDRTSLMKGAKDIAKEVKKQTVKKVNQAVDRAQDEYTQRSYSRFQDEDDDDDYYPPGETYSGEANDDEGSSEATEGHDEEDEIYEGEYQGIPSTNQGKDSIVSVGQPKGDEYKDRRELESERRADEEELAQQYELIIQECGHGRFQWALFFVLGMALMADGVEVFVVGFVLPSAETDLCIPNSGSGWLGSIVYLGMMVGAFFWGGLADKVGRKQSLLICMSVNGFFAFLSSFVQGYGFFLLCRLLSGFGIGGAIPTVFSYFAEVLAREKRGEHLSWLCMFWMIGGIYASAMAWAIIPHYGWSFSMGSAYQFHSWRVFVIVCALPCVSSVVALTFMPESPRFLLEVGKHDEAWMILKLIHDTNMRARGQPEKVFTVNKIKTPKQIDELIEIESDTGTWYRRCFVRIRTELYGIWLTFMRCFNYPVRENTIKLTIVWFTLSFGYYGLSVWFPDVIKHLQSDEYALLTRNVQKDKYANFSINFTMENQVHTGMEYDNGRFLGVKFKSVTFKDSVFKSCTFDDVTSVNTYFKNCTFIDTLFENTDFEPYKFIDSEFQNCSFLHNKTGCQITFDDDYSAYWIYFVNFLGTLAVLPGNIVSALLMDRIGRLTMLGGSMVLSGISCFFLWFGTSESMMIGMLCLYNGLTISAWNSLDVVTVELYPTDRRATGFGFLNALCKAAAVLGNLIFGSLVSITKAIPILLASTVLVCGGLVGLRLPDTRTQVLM

[11] = biological target: rat SV2A, full length (rat) (UniProt Q02563); assay: summary of the example
[12] = biological target: rat SV2B, full length (rat) (UniProt Q63564); assay: description's account of the experiments
[13] = biological target: T1, rat SV2C, full length (rat); assay: description's account of the experiments
[14] = biological target: rat SV2A, full length (rat) (UniProt Q02563); assay: description's account of the experiments
[15] = biological target: rat SV2B, full length (rat) (UniProt Q63564); assay: immunostaining of transfected SV2A/B double knockout hippocampal neurons
[16] = biological target: T1, rat SV2C, full length (rat); assay: as above
[17] = biological target: rat SV2A, full length (rat) (UniProt Q02563); assay: as above
[18] = biological target: T2, GST-tagged 4th luminal domain (L4) of rat SV2C (rat) (UniProt Q9Z2I6); assay: pull-down with immobilised GST-L4, western blot
T2 sequence: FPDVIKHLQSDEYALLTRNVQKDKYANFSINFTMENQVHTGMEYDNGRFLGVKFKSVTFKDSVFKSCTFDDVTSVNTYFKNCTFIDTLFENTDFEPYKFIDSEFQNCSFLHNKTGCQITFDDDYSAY

[19] = biological target: GST-tagged 4th luminal domain (L4) of rat SV2B (rat) (UniProt Q63564); assay: pull-down with immobilised GST-L4, western blot
[20] = biological target: GST-tagged 4th luminal domain (L4) of rat SV2A (rat) (UniProt Q02563); assay: pull-down with immobilised GST-L4, western blot

Measured: binding

Botulinum neurotoxin A (from UniProt P0DPI1 2-1296)
binds: [1] | [2] | [3] | [4] | [5] | [6] | [7] | [8] | [9] | [10] | [11] | [12] | [13] | [14] | [15] | [16] | [17] | [18] | [19] | [20]
